# Reference: the supplement of paper PMC10849652
# The chains behind the UniProt entries cited, without tags or fusion partners. Where a name states a change or a piece, a line headed by the entry shows the natural chain unless it says otherwise.
# UniProt Q9P2X3: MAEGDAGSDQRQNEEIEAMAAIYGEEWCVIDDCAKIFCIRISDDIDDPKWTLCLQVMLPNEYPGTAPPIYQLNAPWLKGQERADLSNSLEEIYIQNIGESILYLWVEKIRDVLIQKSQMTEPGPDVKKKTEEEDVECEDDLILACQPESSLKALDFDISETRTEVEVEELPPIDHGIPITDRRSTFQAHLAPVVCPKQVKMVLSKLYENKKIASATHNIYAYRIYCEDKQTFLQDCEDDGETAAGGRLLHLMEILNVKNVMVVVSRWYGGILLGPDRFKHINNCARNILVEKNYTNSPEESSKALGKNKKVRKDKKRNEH
# UniProt P41252: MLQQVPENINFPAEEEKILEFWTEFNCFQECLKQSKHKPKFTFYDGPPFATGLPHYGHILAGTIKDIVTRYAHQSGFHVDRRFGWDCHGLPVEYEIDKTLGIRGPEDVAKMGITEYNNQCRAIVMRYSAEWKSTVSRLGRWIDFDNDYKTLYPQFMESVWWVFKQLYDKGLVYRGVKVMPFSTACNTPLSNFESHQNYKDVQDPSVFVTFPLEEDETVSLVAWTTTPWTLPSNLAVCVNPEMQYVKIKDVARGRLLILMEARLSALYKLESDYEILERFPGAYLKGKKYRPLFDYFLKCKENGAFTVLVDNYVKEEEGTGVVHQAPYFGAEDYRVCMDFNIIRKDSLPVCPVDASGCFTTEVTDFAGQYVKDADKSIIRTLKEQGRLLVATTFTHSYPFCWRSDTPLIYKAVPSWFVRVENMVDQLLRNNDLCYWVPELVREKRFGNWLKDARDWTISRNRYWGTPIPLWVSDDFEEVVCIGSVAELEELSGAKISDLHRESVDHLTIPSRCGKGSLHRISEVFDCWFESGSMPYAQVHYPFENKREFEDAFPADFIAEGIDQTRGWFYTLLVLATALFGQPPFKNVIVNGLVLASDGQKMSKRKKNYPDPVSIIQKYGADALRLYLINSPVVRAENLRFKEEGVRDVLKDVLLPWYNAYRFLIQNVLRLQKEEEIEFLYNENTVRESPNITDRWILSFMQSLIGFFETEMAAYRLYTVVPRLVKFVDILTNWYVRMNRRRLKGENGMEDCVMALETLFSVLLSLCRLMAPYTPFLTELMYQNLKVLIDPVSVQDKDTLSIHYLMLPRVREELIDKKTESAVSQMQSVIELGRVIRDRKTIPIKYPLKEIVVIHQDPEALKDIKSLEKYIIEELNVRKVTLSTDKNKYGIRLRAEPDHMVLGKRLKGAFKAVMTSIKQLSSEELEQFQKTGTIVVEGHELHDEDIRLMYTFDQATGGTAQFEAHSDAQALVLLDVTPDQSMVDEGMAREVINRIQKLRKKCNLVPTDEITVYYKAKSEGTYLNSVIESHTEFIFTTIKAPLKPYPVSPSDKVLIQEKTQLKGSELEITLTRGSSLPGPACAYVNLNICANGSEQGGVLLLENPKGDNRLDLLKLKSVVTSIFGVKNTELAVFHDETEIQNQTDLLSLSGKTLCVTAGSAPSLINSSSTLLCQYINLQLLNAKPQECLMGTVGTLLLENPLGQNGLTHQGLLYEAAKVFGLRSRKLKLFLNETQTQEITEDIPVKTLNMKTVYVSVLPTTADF
# UniProt Q13418: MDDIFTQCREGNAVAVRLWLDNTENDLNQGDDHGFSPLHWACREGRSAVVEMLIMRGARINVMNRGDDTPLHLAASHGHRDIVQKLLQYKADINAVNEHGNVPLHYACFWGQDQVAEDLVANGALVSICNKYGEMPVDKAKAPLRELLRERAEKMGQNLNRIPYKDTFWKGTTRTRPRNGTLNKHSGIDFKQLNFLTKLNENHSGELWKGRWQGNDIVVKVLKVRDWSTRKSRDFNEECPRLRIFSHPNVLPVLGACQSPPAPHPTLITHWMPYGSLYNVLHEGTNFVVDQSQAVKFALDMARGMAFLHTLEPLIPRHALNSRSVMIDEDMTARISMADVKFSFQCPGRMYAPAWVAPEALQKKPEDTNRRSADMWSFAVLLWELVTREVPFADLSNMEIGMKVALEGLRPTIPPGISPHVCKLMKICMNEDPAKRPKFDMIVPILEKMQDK
# UniProt O14920: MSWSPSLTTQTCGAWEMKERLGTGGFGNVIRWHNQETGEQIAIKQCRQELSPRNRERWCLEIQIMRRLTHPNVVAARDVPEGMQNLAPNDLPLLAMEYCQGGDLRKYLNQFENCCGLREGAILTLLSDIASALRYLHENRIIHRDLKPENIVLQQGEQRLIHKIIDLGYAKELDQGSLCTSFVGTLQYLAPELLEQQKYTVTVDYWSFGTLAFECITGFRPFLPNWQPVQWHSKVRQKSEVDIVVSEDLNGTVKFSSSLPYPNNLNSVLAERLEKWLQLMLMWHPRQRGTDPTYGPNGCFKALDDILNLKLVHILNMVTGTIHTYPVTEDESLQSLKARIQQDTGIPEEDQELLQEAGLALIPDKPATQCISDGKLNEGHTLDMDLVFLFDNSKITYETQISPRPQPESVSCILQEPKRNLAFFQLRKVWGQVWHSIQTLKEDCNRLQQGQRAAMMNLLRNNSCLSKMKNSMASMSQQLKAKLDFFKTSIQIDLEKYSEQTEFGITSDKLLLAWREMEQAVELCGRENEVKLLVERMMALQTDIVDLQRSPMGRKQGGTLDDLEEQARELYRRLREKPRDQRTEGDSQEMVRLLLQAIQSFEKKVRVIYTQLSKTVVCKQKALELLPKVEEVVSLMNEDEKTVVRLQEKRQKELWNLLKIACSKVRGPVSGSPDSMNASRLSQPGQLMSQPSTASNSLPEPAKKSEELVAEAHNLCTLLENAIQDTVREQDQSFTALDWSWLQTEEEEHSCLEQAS
# UniProt Q9BT40: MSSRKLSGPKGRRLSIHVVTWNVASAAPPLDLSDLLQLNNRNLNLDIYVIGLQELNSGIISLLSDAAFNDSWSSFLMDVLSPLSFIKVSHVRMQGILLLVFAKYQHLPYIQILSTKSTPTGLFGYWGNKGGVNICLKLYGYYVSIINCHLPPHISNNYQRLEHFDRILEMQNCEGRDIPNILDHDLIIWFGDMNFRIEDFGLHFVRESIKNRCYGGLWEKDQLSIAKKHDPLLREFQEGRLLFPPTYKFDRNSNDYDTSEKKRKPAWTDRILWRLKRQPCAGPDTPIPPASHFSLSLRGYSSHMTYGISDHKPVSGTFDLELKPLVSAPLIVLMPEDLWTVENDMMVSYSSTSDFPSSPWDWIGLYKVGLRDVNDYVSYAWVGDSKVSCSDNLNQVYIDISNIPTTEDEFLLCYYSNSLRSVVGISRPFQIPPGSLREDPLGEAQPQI
# UniProt P04792, whole entry, looked up: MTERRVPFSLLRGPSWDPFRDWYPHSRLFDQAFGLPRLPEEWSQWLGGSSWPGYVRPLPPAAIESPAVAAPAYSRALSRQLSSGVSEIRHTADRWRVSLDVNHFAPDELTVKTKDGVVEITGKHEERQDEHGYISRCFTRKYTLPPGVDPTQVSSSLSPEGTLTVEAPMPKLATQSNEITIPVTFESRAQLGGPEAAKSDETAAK
# UniProt Q9Y6K9, whole entry, looked up: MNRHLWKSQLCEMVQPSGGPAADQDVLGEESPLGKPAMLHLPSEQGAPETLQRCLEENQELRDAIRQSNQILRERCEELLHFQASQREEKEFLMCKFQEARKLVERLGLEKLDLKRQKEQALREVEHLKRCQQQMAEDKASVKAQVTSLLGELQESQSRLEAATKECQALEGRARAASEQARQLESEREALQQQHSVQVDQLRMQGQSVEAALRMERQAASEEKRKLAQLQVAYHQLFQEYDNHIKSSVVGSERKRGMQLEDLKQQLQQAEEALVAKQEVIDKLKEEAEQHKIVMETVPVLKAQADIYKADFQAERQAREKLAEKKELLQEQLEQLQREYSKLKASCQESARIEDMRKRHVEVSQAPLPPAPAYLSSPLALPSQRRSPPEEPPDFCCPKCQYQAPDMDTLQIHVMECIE
# UniProt P49441: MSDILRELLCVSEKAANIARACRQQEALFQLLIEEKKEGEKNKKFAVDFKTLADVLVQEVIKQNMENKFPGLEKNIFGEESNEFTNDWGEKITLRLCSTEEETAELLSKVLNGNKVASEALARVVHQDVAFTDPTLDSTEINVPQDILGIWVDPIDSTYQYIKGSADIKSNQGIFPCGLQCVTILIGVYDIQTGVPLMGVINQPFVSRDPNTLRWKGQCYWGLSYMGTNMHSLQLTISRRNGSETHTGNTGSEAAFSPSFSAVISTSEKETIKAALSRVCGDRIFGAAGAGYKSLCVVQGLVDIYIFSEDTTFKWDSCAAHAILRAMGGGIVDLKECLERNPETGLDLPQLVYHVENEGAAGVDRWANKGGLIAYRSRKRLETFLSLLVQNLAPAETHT
# UniProt Q9NSE4: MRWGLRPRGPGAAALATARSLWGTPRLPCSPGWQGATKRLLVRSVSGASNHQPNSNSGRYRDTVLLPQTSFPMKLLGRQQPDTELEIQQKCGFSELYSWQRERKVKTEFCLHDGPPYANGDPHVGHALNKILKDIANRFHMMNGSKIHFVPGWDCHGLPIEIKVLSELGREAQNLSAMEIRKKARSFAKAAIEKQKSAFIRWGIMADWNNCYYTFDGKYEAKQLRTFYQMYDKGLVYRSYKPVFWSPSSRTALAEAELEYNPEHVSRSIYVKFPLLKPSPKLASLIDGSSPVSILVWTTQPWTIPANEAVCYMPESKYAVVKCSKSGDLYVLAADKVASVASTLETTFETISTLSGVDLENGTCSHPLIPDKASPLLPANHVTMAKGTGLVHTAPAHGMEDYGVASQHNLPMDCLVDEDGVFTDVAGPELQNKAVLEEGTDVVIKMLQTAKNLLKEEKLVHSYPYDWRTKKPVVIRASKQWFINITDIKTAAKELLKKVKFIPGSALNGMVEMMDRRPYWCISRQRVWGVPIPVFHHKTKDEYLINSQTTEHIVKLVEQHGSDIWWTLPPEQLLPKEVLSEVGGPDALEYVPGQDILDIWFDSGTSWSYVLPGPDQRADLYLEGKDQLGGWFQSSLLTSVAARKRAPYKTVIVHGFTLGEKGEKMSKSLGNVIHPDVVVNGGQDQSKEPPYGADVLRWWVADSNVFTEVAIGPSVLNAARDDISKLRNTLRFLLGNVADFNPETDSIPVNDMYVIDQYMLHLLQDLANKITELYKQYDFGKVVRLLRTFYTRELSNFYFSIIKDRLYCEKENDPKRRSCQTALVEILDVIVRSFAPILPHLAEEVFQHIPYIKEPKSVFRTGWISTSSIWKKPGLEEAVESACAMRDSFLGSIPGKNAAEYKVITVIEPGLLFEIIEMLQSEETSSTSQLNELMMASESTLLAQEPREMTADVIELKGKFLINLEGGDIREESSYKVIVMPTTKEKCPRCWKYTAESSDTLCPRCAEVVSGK
# UniProt Q16891: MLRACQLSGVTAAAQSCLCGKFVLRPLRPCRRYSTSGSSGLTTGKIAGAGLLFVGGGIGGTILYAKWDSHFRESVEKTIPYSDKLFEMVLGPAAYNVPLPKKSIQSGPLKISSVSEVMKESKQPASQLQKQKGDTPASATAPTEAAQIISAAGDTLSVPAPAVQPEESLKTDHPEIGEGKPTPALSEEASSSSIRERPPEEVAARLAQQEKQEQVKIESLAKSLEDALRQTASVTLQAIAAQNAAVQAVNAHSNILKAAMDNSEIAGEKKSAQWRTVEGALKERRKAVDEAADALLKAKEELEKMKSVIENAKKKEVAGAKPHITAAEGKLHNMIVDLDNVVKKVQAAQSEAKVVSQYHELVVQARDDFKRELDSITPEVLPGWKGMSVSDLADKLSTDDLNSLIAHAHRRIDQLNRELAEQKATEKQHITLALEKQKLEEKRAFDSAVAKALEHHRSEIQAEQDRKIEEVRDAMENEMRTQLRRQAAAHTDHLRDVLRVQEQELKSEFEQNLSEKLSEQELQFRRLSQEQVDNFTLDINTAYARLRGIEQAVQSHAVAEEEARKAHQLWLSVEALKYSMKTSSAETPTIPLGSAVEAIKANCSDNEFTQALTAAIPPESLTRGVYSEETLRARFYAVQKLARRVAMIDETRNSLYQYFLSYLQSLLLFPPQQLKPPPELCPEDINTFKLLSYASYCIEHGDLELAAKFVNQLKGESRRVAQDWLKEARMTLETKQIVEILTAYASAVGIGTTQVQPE
# The list shows a part of the results.
# Key:
# Test in all cases: log2 fold change, soluble protein after heating vs DMSO (PISA); higher = thermal stabilisation; K562 lysate, 10 uM; active = over 0.2 and 3.5 SD of the protein, either way, in both replicates (recomputed)
# [1] = compound: Cc1cn(-c2cc(NC(=O)c3ccc(C)c(Nc4nccc(-c5cccnc5)n4)c3)cc(C(F)(F)F)c2)cn1 [nilotinib]
# Method in brief: (§1)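 To prepare the extract, K562 pellets were dounce-homogenised in PBS pH 7.4 with 1 mM MgCl2, giving crude material at 1 mg/mL protein. This was treated with 10 μM compound for 30 min, then heated in aliquots for 3 min over 48°C-58°C before pooling and addition of NP-40 to 0.5% at 4°C. Centrifugation at 21,000xg for 90 min left soluble protein in the supernatant, which TMTpro 16plex LC-MS/MS quantified with equalised channel sums. Results are log-two fold changes in thermal stability compared with solvent controls, from duplicates.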
# [2] = compound: Cc1nc(Nc2n[nH]c3c2CN(C(=O)N[C@H](CN(C)C)c2ccccc2)C3(C)C)c2sccc2n1
# Method in brief: as §1
# [3] = compound: Cc1nc(Nc2ncc(C(=O)Nc3c(C)cccc3Cl)s2)cc(N2CCN(CCO)CC2)n1 [dasatinib]
# Method in brief: as §1
# [4] = compound: Cc1ncc(-c2ccnc(Nc3ccc(S(C)(=O)=O)cc3)n2)n1C(C)C
# Method in brief: as §1
# [5] = compound: Cn1cc(-c2ccc3c(c2)CCN3C(=O)Cc2cccc(C(F)(F)F)c2)c2c(N)ncnc21
# Method in brief: as §1
# [6] = compound: Cn1cc(CNCC2CCN(c3ncc(C(=O)NO)cn3)CC2)c2ccccc21 [quisinostat]
# Method in brief: as §1
# [7] = compound: Cn1cncc1[C@@](N)(c1ccc(Cl)cc1)c1ccc2c(c1)c(-c1cccc(Cl)c1)cc(=O)n2C [tipifarnib]
# Method in brief: as §1
# [8] = compound: NC(=O)Nc1cc(-c2cccc(F)c2)sc1C(=O)N[C@H]1CCCNC1
# Method in brief: as §1
# [9] = compound: NC(=O)c1cnc(N[C@@H]2CCCC[C@@H]2N)nc1Nc1cccc(-n2nccn2)c1
# Method in brief: as §1
# [10] = compound: NC1(c2ccc(-c3nc4ccn5c(=O)[nH]nc5c4cc3-c3ccccc3)cc2)CCC1
# Method in brief: as §1
# [11] = compound: NCC(=O)Nc1ccc(-n2nc(C(F)(F)F)cc2-c2ccc3c(ccc4ccccc43)c2)cc1
# Method in brief: as §1
# [12] = compound: O=C(CCCCCCC(=O)Nc1ccccc1)NO [vorinostat]
# Method in brief: as §1
# [13] = compound: O=C(O)c1ccc2c(c1)nc(Nc1cccc(Cl)c1)c1ccncc12 [silmitasertib]
# Method in brief: as §1
# [14] = compound: O=C1NC(=O)C(c2cnc3ccccn23)=C1c1cn2c3c(cc(F)cc13)CN(C(=O)N1CCCCC1)CC2
# Method in brief: as §1
# [15] = compound: c1cn2cc(-c3ccc4cn[nH]c4c3)nc(Nc3ccc(N4CCOCC4)cc3)c2n1 [entospletinib]
# Method in brief: as §1
Target,log2 fold change [1],log2 fold change [2],log2 fold change [3],log2 fold change [4],log2 fold change [5],log2 fold change [6],log2 fold change [7],log2 fold change [8],log2 fold change [9],log2 fold change [10],log2 fold change [11],log2 fold change [12],log2 fold change [13],log2 fold change [14],log2 fold change [15]
IMPACT (UniProt Q9P2X3),inactive: 0.087,inactive: -0.066,inactive: 0.013,active: -0.687,inactive: 0.04,inactive: -0.103,inactive: -0.13,inactive: 0.11,inactive: 0.071,inactive: 0.087,inactive: 0.019,inactive: -0.125,inactive: -0.096,inactive: -0.082,inactive: -0.027
IARS (UniProt P41252),inactive: 0.007,inactive: -0.007,inactive: -0.042,inactive: -0.015,inactive: 0.053,inactive: -0.02,inactive: -0.003,inactive: 0.038,inactive: 0.001,inactive: -0.029,inactive: 0.014,active: -0.325,inactive: 0.046,inactive: -0.008,inactive: 0.031
ILK (UniProt Q13418),inactive: 0.01,inactive: -0.066,inactive: 0.071,inactive: 0,inactive: 0.014,inactive: -0.076,inactive: -0.001,inactive: 0.097,inactive: -0.022,inactive: -0.036,inactive: -0.047,active: -0.343,inactive: 0.086,inactive: 0.019,inactive: 0.096
IKBKB (UniProt O14920),inactive: -0.002,inactive: 0.06,inactive: -0.034,inactive: -0.015,inactive: 0.025,inactive: -0.055,inactive: -0.003,inactive: 0.076,inactive: 0.027,inactive: -0.057,inactive: -0.024,inactive: -0.203,inactive: 0.075,inactive: -0.035,inactive: 0.009
INPP5K (UniProt Q9BT40),inactive: -0.134,inactive: 0.148,inactive: 0.038,inactive: -0.049,inactive: 0.031,inactive: -0.065,inactive: 0.054,inactive: 0.035,inactive: 0.009,inactive: 0.117,inactive: -0.117,inactive: -0.213,inactive: -0.002,inactive: -0.025,inactive: -0.029
HSPB1 (UniProt P04792),inactive: -0.001,inactive: 0.003,inactive: -0.032,inactive: 0.012,inactive: 0.015,inactive: 0.025,inactive: -0.006,inactive: 0.006,inactive: 0,inactive: 0.006,inactive: 0.019,inactive: -0.013,inactive: -0.027,inactive: -0.001,inactive: 0.013
IKBKG isoform 2 (UniProt Q9Y6K9),inactive: 0.005,inactive: 0.03,inactive: -0.018,inactive: 0.024,inactive: 0.038,inactive: -0.019,inactive: -0.007,inactive: -0.007,inactive: 0.018,inactive: -0.029,inactive: 0.008,inactive: 0.036,inactive: 0.035,inactive: 0.053,inactive: -0.001
INPP1 (UniProt P49441),inactive: 0.013,inactive: -0.043,inactive: -0.026,inactive: -0.043,inactive: -0.001,inactive: 0.017,inactive: 0.097,inactive: 0.033,inactive: -0.003,inactive: 0.003,inactive: -0.017,inactive: -0.014,inactive: 0.028,inactive: -0.021,inactive: 0.079
IARS2 (UniProt Q9NSE4),inactive: 0.016,inactive: -0.007,inactive: -0.021,inactive: 0.026,inactive: 0,inactive: 0.022,inactive: 0.006,inactive: 0.021,inactive: 0.02,inactive: -0.004,inactive: -0.002,inactive: 0.079,inactive: -0.01,inactive: -0.021,inactive: 0.01
IMMT (UniProt Q16891),inactive: -0.009,inactive: 0.016,inactive: -0.075,inactive: 0.037,inactive: 0.01,inactive: 0.041,inactive: -0.005,inactive: -0.007,inactive: -0.017,inactive: -0.035,inactive: -0.005,inactive: 0.056,inactive: 0.033,inactive: 0.016,inactive: 0.017

# Reformatted with tabs: part of the list above
Target	log2 fold change [1]	log2 fold change [2]	log2 fold change [3]	log2 fold change [4]	log2 fold change [5]	log2 fold change [6]	log2 fold change [7]	log2 fold change [8]	log2 fold change [9]	log2 fold change [10]	log2 fold change [11]	log2 fold change [12]	log2 fold change [13]	log2 fold change [14]	log2 fold change [15]
HSPB1 (UniProt P04792)	inactive: -0.001	inactive: 0.003	inactive: -0.032	inactive: 0.012	inactive: 0.015	inactive: 0.025	inactive: -0.006	inactive: 0.006	inactive: 0	inactive: 0.006	inactive: 0.019	inactive: -0.013	inactive: -0.027	inactive: -0.001	inactive: 0.013
IKBKG isoform 2 (UniProt Q9Y6K9)	inactive: 0.005	inactive: 0.03	inactive: -0.018	inactive: 0.024	inactive: 0.038	inactive: -0.019	inactive: -0.007	inactive: -0.007	inactive: 0.018	inactive: -0.029	inactive: 0.008	inactive: 0.036	inactive: 0.035	inactive: 0.053	inactive: -0.001
